From the supplement of paper PMC10849652
The list shows a part of the results.

Sequences of proteins named here, by UniProt entry; tags and fusion partners are left off. A change or cut given only in a name is not applied to a line headed by its entry.
UniProt O15400: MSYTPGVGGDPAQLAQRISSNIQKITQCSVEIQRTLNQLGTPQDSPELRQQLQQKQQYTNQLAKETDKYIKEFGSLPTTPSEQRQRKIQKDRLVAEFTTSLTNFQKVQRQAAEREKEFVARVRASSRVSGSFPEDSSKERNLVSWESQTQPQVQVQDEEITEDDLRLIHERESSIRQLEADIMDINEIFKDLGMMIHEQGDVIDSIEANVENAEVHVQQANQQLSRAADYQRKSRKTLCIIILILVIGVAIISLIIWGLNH
UniProt O94901, whole entry, looked up: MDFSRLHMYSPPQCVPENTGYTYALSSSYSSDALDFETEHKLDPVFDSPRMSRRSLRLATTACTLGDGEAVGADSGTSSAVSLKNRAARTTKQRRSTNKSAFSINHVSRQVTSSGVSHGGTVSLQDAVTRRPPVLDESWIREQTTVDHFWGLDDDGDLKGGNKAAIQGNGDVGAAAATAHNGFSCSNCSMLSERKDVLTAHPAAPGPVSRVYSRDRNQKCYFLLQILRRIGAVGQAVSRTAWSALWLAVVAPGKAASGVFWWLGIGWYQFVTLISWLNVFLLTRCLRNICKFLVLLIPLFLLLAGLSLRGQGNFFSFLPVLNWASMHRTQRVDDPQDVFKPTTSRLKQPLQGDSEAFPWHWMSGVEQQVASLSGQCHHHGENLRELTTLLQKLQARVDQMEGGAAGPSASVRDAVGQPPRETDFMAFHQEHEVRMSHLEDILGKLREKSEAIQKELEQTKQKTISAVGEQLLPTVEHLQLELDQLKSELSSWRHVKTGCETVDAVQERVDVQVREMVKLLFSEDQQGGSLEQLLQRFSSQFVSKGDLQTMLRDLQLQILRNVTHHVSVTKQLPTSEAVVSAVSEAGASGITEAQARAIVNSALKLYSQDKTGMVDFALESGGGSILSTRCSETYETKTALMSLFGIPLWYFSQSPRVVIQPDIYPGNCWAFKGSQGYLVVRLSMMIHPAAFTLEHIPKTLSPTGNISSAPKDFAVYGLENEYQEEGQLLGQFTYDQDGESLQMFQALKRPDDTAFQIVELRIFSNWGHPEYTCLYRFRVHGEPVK
UniProt O95359: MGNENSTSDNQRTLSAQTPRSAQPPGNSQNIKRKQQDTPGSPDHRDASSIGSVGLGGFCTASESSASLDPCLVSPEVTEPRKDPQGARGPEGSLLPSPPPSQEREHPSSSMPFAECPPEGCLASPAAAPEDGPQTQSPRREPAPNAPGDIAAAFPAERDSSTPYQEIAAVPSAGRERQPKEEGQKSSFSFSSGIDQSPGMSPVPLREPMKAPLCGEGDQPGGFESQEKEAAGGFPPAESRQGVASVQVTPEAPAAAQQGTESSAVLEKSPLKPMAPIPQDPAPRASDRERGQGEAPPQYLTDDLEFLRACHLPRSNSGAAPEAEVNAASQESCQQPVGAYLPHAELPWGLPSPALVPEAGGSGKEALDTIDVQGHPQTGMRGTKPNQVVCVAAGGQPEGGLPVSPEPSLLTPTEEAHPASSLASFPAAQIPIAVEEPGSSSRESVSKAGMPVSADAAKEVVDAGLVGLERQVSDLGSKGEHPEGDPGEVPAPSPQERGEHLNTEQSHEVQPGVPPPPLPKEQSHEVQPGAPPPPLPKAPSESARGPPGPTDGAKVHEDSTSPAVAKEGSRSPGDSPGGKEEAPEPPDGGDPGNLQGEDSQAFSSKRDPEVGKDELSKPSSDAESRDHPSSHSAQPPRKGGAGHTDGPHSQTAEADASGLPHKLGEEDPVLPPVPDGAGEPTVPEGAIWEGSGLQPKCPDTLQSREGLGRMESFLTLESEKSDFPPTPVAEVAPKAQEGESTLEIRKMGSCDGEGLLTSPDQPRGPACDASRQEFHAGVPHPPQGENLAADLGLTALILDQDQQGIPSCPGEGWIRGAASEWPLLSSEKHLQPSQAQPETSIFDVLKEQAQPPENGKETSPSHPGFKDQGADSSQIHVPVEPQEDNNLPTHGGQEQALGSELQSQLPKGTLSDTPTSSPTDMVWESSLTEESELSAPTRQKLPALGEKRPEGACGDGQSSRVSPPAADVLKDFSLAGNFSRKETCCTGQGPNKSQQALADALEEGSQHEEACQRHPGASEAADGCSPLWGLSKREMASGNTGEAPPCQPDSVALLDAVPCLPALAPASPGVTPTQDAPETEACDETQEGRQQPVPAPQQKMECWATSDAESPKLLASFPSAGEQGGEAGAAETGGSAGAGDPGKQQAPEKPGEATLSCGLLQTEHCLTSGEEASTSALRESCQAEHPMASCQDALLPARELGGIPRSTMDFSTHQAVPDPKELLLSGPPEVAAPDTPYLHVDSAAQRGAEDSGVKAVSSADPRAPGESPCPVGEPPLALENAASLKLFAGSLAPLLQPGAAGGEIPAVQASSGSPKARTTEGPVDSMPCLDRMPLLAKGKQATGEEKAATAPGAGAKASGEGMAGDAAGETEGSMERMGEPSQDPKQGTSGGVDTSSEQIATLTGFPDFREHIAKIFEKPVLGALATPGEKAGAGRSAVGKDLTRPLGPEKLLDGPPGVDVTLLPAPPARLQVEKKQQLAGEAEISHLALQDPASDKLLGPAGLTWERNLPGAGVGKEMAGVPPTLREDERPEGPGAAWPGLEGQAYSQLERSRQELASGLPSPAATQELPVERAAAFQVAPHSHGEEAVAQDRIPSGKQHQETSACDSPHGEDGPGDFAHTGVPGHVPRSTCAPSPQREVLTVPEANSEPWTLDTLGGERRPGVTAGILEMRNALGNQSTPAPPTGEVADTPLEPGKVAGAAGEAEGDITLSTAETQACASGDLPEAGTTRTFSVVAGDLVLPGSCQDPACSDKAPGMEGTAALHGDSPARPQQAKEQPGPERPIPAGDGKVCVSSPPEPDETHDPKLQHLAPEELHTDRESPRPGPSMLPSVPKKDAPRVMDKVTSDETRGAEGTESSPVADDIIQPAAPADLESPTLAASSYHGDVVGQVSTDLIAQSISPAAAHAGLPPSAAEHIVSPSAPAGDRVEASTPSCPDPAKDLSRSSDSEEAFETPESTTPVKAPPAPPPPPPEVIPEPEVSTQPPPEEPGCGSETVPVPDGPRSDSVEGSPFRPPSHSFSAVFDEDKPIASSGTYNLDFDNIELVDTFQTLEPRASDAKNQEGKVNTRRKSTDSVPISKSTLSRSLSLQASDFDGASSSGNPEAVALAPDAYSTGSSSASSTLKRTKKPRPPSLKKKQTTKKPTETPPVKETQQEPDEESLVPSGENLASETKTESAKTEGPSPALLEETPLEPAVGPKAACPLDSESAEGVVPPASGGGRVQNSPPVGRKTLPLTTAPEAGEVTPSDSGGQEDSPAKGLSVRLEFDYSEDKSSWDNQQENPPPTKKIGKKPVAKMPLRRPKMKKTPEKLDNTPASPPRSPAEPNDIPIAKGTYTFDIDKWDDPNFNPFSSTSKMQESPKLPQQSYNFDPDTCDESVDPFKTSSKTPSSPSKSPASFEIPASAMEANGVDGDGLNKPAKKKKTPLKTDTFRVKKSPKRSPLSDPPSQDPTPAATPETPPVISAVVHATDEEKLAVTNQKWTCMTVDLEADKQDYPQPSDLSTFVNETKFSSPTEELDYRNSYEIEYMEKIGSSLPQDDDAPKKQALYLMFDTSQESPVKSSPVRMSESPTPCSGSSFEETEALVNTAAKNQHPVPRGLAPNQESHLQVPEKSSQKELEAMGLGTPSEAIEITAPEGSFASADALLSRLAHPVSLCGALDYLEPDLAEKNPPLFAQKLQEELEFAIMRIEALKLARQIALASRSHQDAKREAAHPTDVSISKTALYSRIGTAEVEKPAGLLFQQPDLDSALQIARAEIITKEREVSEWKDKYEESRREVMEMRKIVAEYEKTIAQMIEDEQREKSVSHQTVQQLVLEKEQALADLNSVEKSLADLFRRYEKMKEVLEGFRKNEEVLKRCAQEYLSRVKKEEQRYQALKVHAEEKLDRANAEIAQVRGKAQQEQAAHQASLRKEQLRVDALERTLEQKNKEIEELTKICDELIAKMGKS
UniProt P56962: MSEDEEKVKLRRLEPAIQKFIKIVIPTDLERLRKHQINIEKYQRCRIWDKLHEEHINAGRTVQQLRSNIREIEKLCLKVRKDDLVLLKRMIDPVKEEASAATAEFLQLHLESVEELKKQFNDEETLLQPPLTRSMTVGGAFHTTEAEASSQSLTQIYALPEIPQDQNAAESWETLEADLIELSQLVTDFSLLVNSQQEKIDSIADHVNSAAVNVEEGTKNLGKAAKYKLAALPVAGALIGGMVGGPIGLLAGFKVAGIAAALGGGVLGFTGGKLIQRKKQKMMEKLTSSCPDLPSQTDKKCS
UniProt P53597: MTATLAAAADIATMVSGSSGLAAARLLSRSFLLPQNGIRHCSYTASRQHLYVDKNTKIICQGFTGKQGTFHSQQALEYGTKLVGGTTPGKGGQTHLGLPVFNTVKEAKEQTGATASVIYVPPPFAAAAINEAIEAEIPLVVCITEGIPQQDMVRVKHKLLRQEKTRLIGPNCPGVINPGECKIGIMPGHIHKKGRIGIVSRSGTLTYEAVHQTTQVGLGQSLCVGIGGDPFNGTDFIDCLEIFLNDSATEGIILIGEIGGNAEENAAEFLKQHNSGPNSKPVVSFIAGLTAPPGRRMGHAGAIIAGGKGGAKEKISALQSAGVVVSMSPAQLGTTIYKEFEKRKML
UniProt Q15526: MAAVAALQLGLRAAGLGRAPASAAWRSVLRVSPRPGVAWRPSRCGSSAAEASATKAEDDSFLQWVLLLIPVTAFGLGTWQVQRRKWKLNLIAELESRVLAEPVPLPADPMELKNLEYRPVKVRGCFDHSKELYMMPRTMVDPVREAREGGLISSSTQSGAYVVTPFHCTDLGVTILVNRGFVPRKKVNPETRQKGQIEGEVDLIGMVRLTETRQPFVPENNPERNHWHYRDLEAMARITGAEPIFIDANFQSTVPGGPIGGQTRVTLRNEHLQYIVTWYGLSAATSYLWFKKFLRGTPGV
UniProt O60347: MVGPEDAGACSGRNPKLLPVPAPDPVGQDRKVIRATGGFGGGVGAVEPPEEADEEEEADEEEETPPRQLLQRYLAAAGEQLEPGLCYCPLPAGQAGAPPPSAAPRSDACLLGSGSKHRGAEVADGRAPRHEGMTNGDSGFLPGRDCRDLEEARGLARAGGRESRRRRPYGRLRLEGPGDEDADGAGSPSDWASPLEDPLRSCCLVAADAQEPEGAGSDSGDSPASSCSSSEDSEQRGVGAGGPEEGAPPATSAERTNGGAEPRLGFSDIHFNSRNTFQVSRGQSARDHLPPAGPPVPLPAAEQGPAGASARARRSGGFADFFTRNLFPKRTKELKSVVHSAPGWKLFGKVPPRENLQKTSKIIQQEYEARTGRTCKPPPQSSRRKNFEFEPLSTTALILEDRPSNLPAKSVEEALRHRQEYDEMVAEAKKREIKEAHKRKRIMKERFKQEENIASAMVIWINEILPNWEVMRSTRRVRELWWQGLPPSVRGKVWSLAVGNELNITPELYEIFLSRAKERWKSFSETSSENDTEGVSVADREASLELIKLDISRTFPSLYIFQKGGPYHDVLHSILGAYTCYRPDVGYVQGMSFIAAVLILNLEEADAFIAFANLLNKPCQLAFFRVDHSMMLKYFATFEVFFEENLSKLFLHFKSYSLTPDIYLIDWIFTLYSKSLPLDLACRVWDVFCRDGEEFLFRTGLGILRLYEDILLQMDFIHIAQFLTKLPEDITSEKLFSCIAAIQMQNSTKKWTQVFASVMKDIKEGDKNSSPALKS
UniProt Q6ZWJ1: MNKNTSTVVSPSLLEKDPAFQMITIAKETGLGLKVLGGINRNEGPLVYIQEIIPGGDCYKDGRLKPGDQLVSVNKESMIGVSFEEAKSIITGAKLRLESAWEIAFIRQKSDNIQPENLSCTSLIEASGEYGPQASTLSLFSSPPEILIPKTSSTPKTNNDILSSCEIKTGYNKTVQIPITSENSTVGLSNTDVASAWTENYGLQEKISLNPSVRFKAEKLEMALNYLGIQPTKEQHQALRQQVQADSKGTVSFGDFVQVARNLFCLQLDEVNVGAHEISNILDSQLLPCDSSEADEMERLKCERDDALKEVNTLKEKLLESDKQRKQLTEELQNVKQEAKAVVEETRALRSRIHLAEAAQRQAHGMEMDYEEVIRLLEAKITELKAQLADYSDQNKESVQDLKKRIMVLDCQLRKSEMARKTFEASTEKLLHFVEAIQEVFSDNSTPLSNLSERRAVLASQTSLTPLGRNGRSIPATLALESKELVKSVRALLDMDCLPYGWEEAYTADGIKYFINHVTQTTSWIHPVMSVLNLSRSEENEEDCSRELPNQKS

How the values were obtained:
Test in all cases: log2 fold change, soluble protein after heating vs DMSO (PISA); higher = thermal stabilisation; K562 cells, 10 uM, 30 min; active = over 0.2 and 3.5 SD of the protein, either way, in both replicates (recomputed)
saracatinib = compound: CN1CCN(CCOc2cc(OC3CCOCC3)c3c(Nc4c(Cl)ccc5c4OCO5)ncnc3c2)CC1 [saracatinib]
Summary of the method: (§1)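 For each measurement, 10 μM compound was applied for 30 min to K562 cells at 2×10^6 cells/mL. Aliquots were heated for 3 min across 48°C-58°C, pooled, and extracted in PBS with 0.5% NP-40 at 4°C; the supernatant after 21,000xg for 90 min was soluble protein. This was quantified by TMTpro 16plex LC-MS/MS with channel sums equalised, and thermal stability was reported relative to control samples from duplicates, on a log2 fold-change scale.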

sotrastaurin = compound: CN1CCN(c2nc(C3=C(c4c[nH]c5ccccc45)C(=O)NC3=O)c3ccccc3n2)CC1 [sotrastaurin]
Summary of the method: as §1

Tubastatin A = compound: CN1CCc2c(c3ccccc3n2Cc2ccc(C(=O)NO)cc2)C1 [Tubastatin A]
Summary of the method: as §1

[1] = compound: CNC(=O)C1=CC=CC=C1NC2=NC(=NC=C2Cl)NC3=C(C=C(C=C3)N4CCOCC4)OC
Summary of the method: as §1

defactinib = compound: CNC(=O)c1ccc(Nc2ncc(C(F)(F)F)c(NCc3nccnc3N(C)S(C)(=O)=O)n2)cc1 [defactinib]
Summary of the method: as §1

rucaparib = compound: CNCc1ccc(-c2[nH]c3cc(F)cc4c3c2CCNC4=O)cc1 [rucaparib]
Summary of the method: as §1

[2] = compound: CNc1nc(-c2ccc3c(N)n[nH]c3c2)cc(N2C[C@@H](C(=O)NC3CCCCC3)CC[C@H]2C)n1
Summary of the method: as §1

encorafenib = compound: COC(=O)N[C@@H](C)CNc1nccc(-c2cn(C(C)C)nc2-c2cc(Cl)cc(NS(C)(=O)=O)c2F)n1 [encorafenib]
Summary of the method: as §1

[3] = compound: COC(=O)[C@H](CCSC)NC(=O)C1=C(C=C(C=C1)NC[C@H](CS)N)C2=CC=CC=C2
Summary of the method: as §1

[4] = compound: COC1=CC=C(C=C1)CN2C=CC3=C2C=C(C=C3)C(=O)NO
Summary of the method: as §1

filanesib = compound: CON(C)C(=O)N1N=C(c2cc(F)ccc2F)S[C@@]1(CCCN)c1ccccc1 [filanesib]
Summary of the method: as §1

zotarolimus = compound: CO[C@H]1C[C@@H]2CC[C@@H](C)[C@@](O)(O2)C(=O)C(=O)N2CCCC[C@H]2C(=O)O[C@H]([C@H](C)C[C@@H]2CC[C@H](n3cnnn3)[C@H](OC)C2)CC(=O)[C@H](C)/C=C(\C)[C@@H](O)[C@@H](OC)C(=O)[C@H](C)C[C@H](C)/C=C/C=C/C=C/1C [zotarolimus]
Summary of the method: as §1

idasanutlin = compound: COc1cc(C(=O)O)ccc1NC(=O)[C@@H]1N[C@@H](CC(C)(C)C)[C@](C#N)(c2ccc(Cl)cc2F)[C@H]1c1cccc(Cl)c1F [idasanutlin]
Summary of the method: as §1

alisertib = compound: COc1cc(Nc2ncc3c(n2)-c2ccc(Cl)cc2C(c2c(F)cccc2OC)=NC3)ccc1C(=O)O [alisertib]
Summary of the method: as §1

[5] = compound: COc1cc2nc(-c3cc(F)ccc3O)nc(N[C@@H]3CNC[C@H]3C(C)(C)O)c2cc1OC
Summary of the method: as §1

gefitinib = compound: COc1cc2ncnc(Nc3ccc(F)c(Cl)c3)c2cc1OCCCN1CCOCC1 [gefitinib]
Summary of the method: as §1

[6] = compound: COc1cccc2cc(-c3nc([C@H]4CC[C@H](C(=O)O)CC4)n4ncnc(N)c34)[nH]c12
Summary of the method: as §1

lapatinib = compound: CS(=O)(=O)CCNCc1ccc(-c2ccc3ncnc(Nc4ccc(OCc5cccc(F)c5)c(Cl)c4)c3c2)o1 [lapatinib]
Summary of the method: as §1

pictilisib = compound: CS(=O)(=O)N1CCN(Cc2cc3nc(-c4cccc5[nH]ncc45)nc(N4CCOCC4)c3s2)CC1 [pictilisib]
Summary of the method: as §1

alvocidib = compound: CN1CC[C@H](c2c(O)cc(O)c3c(=O)cc(-c4ccccc4Cl)oc23)[C@H](O)C1 [alvocidib]
Summary of the method: as §1

Measured: log2 fold change

STX7 (UniProt O15400)
inactive: saracatinib 0.063 | sotrastaurin 0.026 | Tubastatin A -0.036 | [1] 0.013 | defactinib -0.033 | rucaparib 0.028 | [2] -0.014 | encorafenib -0.039 | [3] -0.02 | [4] 0.065 | filanesib -0.071 | zotarolimus 0.027 | idasanutlin -0.023 | alisertib -0.048 | [5] 0.013 | gefitinib -0.01 | [6] 0.045 | lapatinib -0.002 | pictilisib -0.118

SUN1 isoform 9 (UniProt O94901)
inactive: saracatinib -0.023 | sotrastaurin -0.178 | Tubastatin A -0.048 | [1] -0.108 | defactinib 0.049 | rucaparib 0.083 | [2] -0.038 | encorafenib -0.018 | [3] -0.029 | [4] -0.062 | filanesib 0.084 | zotarolimus 0.162 | idasanutlin 0.02 | alisertib -0.059 | [5] -0.14 | gefitinib -0.053 | [6] 0.122 | lapatinib 0.052 | pictilisib -0.002

TACC2 (UniProt O95359)
inactive: saracatinib -0.003 | sotrastaurin 0.115 | Tubastatin A -0.041 | [1] 0.075 | defactinib -0.091 | rucaparib -0.045 | [2] -0.105 | encorafenib -0.013 | [3] 0.039 | filanesib -0.107 | zotarolimus -0.003 | idasanutlin -0.042 | alisertib 0.1 | [5] 0.01 | gefitinib -0.027 | [6] 0.011 | lapatinib 0.011 | pictilisib 0.046

STX17 (UniProt P56962)
inactive: saracatinib -0.038 | sotrastaurin 0 | Tubastatin A 0.044 | [1] 0.021 | defactinib -0.266 | rucaparib 0.152 | [2] 0.127 | encorafenib 0.091 | [3] -0.001 | [4] 0.023 | filanesib 0.013 | zotarolimus 0.046 | idasanutlin -0.027 | alisertib -0.12 | [5] -0.081 | gefitinib 0.027 | [6] -0.001 | lapatinib 0.039 | pictilisib 0.093

STK39 (UniProt Q9UEW8)
inactive: saracatinib -0.014 | sotrastaurin -0.017 | Tubastatin A 0.009 | [1] -0.045 | defactinib -0.015 | rucaparib 0.014 | [2] -0.008 | encorafenib 0.039 | [3] 0.056 | [4] -0.016 | filanesib -0.033 | zotarolimus 0.062 | idasanutlin -0.06 | alisertib -0.044 | [5] 0.034 | gefitinib -0.014 | [6] -0.036 | lapatinib -0.002 | pictilisib 0.107

SUCLG1 (UniProt P53597)
inactive: saracatinib 0.042 | sotrastaurin 0.019 | Tubastatin A -0.005 | [1] 0.015 | defactinib -0.057 | rucaparib 0.016 | [2] -0.006 | encorafenib -0.001 | [3] 0.016 | [4] -0.046 | filanesib -0.107 | zotarolimus 0.004 | idasanutlin -0.107 | alisertib 0.037 | [5] 0.051 | gefitinib -0.01 | [6] 0.041 | lapatinib -0.043 | pictilisib 0.003

TAX1BP1 (UniProt Q86VP1)
inactive: saracatinib 0.016 | sotrastaurin -0.057 | Tubastatin A -0.01 | [1] -0.016 | defactinib -0.038 | rucaparib -0.003 | [2] -0.06 | encorafenib 0.025 | [3] 0.054 | [4] -0.03 | filanesib -0.043 | zotarolimus -0.009 | idasanutlin 0.069 | alisertib 0.007 | [5] -0.052 | gefitinib 0.001 | [6] 0.033 | lapatinib -0.012 | pictilisib 0.044

SURF1 (UniProt Q15526)
inactive: saracatinib 0.034 | sotrastaurin -0.084 | Tubastatin A -0.03 | [1] 0.026 | defactinib -0.012 | rucaparib -0.083 | [2] -0.092 | encorafenib 0.017 | [3] -0.105 | [4] 0.053 | filanesib -0.032 | zotarolimus -0.008 | idasanutlin 0.025 | alisertib -0.098 | [5] -0.004 | gefitinib -0.055 | [6] 0.083 | lapatinib 0.058 | pictilisib 0.051

TBC1D12 (UniProt O60347)
inactive: alvocidib -0.059 | Tubastatin A 0.151 | [1] -0.081 | defactinib -0.018 | rucaparib 0.052 | encorafenib 0.134 | [3] -0.265 | zotarolimus 0.099 | idasanutlin 0.037 | alisertib 0.153 | [5] -0.036 | [6] -0.01 | lapatinib 0.052

STK40 isoform 4 (UniProt Q8N2I9)
inactive: saracatinib -0.23 | [2] 0.011 | idasanutlin -0.139 | [5] 0.094 | lapatinib -0.181

STXBP4 (UniProt Q6ZWJ1)
inactive: defactinib 0.025 | [3] -0.065 | [4] -0.165

Copied from the results shown (two entries):
SURF1 (UniProt Q15526)
inactive: saracatinib 0.034 | sotrastaurin -0.084 | Tubastatin A -0.03 | [1] 0.026 | defactinib -0.012 | rucaparib -0.083 | [2] -0.092 | encorafenib 0.017 | [3] -0.105 | [4] 0.053 | filanesib -0.032 | zotarolimus -0.008 | idasanutlin 0.025 | alisertib -0.098 | [5] -0.004 | gefitinib -0.055 | [6] 0.083 | lapatinib 0.058 | pictilisib 0.051

TBC1D12 (UniProt O60347)
inactive: alvocidib -0.059 | Tubastatin A 0.151 | [1] -0.081 | defactinib -0.018 | rucaparib 0.052 | encorafenib 0.134 | [3] -0.265 | zotarolimus 0.099 | idasanutlin 0.037 | alisertib 0.153 | [5] -0.036 | [6] -0.01 | lapatinib 0.052
